The text below walks through data of patent publication US20170360949A1 (TIANJIN INSTITUTE OF INDUSTRIAL BIOTECHNOLOGY CHINESE …, published 2017).

These are yes or no findings as the source states them, for the method shown. In cells and extracts the contact can be indirect. Some binding calls cover weakened binding; strength is not graded here.

For this test, the target named is Z1Z2 (two Ig domains at the N terminus of the titin molecule) (human). The experiment in a line: complex formation by mixing in urea and dialysis, then co-purification.

B1: TeN (N terminus of Telethonin, Cys mutated to Ser) (other)
chain: GAMATSELSSEVSEENSERREAFWAEWKDLTLSTRPEEGSSLHEEDTQRHETYHQQGQSQVLVQRSPWLMMRMGILGRGLQEYQLPYQRVLP
notes: also called polypeptide B
B1: the binding result was “binds”.
